Measured values as given in PubChem BioAssay AID1671190 (National Center for Advancing Translational Sciences (NCATS), 2021).
Several values for one entry are separate records, joined by “and”; a condition that tells them apart may be missing. Equal values may be shown once. About 6,100 (1.1%) of roughly 580,000 compounds were called active. Inconclusive results, whose numbers are uncertain, are shown with a selection of clear calls. The call rests on the fitted dose curve; in most records, active means well fitted inhibition curve with a large enough effect; inconclusive means small, poorly fitted or top-dose-only effect, or another doubt; inactive means no such curve, though single readings can be large or run the other way. Potencies beside an inconclusive call are fits to weak or partial responses and may not hold up.

Chains of the proteins cited; added tags and fusions are not shown. Lines headed by an entry give the natural chain unless they say otherwise; changes in a name come on top.
UniProt P18054: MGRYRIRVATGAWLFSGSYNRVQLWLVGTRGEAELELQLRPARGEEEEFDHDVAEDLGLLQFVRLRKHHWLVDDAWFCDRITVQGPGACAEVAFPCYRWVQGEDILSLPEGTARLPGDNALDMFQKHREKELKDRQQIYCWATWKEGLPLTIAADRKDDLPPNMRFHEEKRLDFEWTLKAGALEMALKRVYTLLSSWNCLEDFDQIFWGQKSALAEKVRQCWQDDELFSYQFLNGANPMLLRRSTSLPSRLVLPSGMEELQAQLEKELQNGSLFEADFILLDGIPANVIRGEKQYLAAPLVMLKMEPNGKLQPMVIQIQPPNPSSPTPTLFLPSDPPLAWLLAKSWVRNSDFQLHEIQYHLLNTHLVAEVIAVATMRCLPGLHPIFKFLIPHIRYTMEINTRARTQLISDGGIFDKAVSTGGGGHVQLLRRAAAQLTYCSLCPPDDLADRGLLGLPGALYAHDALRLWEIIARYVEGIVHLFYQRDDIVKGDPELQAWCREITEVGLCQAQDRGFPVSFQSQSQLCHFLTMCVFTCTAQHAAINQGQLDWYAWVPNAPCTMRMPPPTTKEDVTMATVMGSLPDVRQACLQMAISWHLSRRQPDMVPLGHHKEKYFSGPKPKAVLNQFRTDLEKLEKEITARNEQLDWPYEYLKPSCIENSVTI

biological target: Polyunsaturated fatty acid lipoxygenase ALOX12 (Homo sapiens) (UniProt P18054); experiment: Primary qHTS assay for inhibitors of human arachidonate 12S-lipoxygenase (ALOX12): Round 2; conditions: purified 12hLO, xylenol orange hydroperoxide absorbance; series mostly up to 108 µM
Method in brief: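 Purified human 12hLO (150 nM final) in 25 mM Hepes, 0.01% Triton X-100, pH 7.0 was preincubated 15 min at room temperature with compound. Then 40 uM arachidonic acid was added, 30 min. Hydroperoxide was read by Fe-XO absorbance ratio 573/405 nm.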
Potency means the concentration at half of the fitted maximal effect.

| Structure (SMILES) | Potency |
| --- | --- |
| O=C(O)c1ccc(-c2ccccc2)[nH]1 | inactive |
| O=C(Nc1nc(-c2c[nH]c3ccccc23)cs1)C1CCCC1 | inconclusive: 63.1 µM [inhibitor, partial curve, poor fit] |
| O=C1NC[C@@H](CCCCN2C[C@H](Cc3ccccc3)N(CCc3ccccc3)C(=O)C2=O)N(Cc2ccccc2)C1=O | inconclusive: 3.98 µM [inhibitor, full curve, poor fit] |
| O=C(O)c1cccc(NC2=C(Cl)C(=O)c3ccccc3C2=O)c1 | inconclusive: 35.5 µM [inhibitor, partial curve] |
| COc1ccc(NC(=O)COC(=O)c2c(-c3ccccc3)noc2C)cc1 | inconclusive: 89.1 µM [inhibitor, partial curve, poor fit] |
| O=C(Nc1ccc(Br)cc1F)N1CC=C(c2c[nH]c3ccccc23)CC1 | inconclusive: 112 µM [inhibitor, partial curve, poor fit] |
| O=C(O)CC12CC3CC(C1)CC(n1ncc(NCc4ccccc4Cl)c(Cl)c1=O)(C3)C2 | inactive |
| Cc1ccsc1C(=O)N1CCC2(CC1)N=C(c1ccc(Cl)cc1)NO2 | inactive |
| CCONC(=O)CCC1Cc2ccccc2NC1=O (stereo not drawn) | inactive |
| CCC(CC)C(=O)NC[C@H]1O[C@@H](CC(=O)N2CCN(c3ccc(F)cc3)CC2)[C@H](O)[C@@H]1O | inconclusive: 63.1 µM [inhibitor, partial curve, poor fit] |
| CN(C)c1ccc(C(N)=S)cc1 | active: 15.8 µM |
| CCCCC(=O)N1CCc2c(nc3cc(-c4ccccc4Cl)[nH]n3c2=O)C1 | inconclusive: 10 µM [inhibitor, full curve, poor fit] |
| O=c1cc(O)c2sc3nc(C45CC6CC(CC(C6)C4)C5)cc(C(F)(F)F)c3c2[nH]1 | inconclusive: 7.94 µM [inhibitor, full curve, poor fit] |
| O=C(c1cc(-c2cccnc2)nc2ccc(Cl)cc12)N1CCN(S(=O)(=O)c2cccs2)CC1 | inconclusive: 44.7 µM [inhibitor, partial curve, poor fit] |
| O=C(O)CCc1conc1-c1ccc(F)cc1 | inconclusive: 8.91 µM [inhibitor, full curve] |
| O=C(NC1=NCCS1)C1CCN(S(=O)(=O)c2cc([N+](=O)[O-])ccc2Cl)CC1 | inconclusive: 50.1 µM [inhibitor, partial curve, poor fit] |
| Fc1ccc(NC(=S)Nc2ccc3nccnc3c2)cc1 | inconclusive: 50.1 µM [inhibitor, partial curve, poor fit] |
| CCC[C@@H]1CN(Cc2[nH]cc(C)c(=O)c2C)C[C@H]1C(=O)O | inactive |
| N#Cc1c(NC(=O)CSc2ccccn2)sc2c1CCCCC2 | inconclusive: 39.8 µM [inhibitor, partial curve] |
| O=C(CN1CCOCC1)NN1CC(=O)N(c2ccc(Cl)cc2)CC1=O | inconclusive: 141 µM [inhibitor, single point] |
| CCOc1ccc2oc(C(=O)Nc3cc(C)ccn3)c(C)c2c1 | inconclusive: 44.7 µM [inhibitor, partial curve, poor fit] |

| Structure (SMILES) | Potency |
| --- | --- |
| O=S(=O)(NCc1csc(Br)c1)c1ccc(Br)s1 | inconclusive: 31.6 µM [inhibitor, full curve, poor fit] |
| COc1ccc(-c2ccc(CCC(=O)O)n2-c2ccccc2O)cc1 | inconclusive: 79.4 µM [inhibitor, partial curve, poor fit] and inconclusive: 44.7 µM [inhibitor, partial curve, poor fit] |
| CCCSc1ccccc1C(=O)NC(C)(C)C | inactive |
| Cc1cc(NC(=O)NC2CCCN2S(=O)(=O)c2ccc(Cl)cc2)no1 (stereo not drawn) | inconclusive: 0.355 µM [inhibitor, full curve, poor fit] |
| CNc1nc(-c2ccccc2CN(C)C)nc2ccccc12 | inconclusive: 0.708 µM [inhibitor, full curve, poor fit] |
| CC(NC(=S)Nc1cccc(C(F)(F)F)c1)C(C)(C)C (stereo not drawn) | inconclusive: 50.1 µM [inhibitor, partial curve, poor fit] |
| O=C1CN(C(=O)COC(=O)CCSc2ccccc2Cl)c2ccccc2N1 | inconclusive: 141 µM [inhibitor, partial curve, poor fit] |
| COc1cccc(C2=NS(=O)(=O)N(C)C(C(=O)Nc3ccn(Cc4ccc(C)cc4)n3)=C2)c1 | inactive |
| Fc1ccc(Nc2nc(-c3ccoc3)nc3ccccc23)cc1 | inconclusive: 6.31 µM [inhibitor, full curve, poor fit] |
| FC(F)(F)c1ccc(Cl)c(-n2c(-c3cc(C4CC4)[nH]n3)n[nH]c2=S)c1 | inconclusive: 44.7 µM [inhibitor, partial curve, poor fit] |
| CC1=C(C(=O)Nc2ccc(C)cc2C)C(c2ccc(O)cc2)n2nc(SCC(=O)c3ccc(C)cc3)nc2N1 (stereo not drawn) | inconclusive: 89.1 µM [inhibitor, partial curve, poor fit] |
| Cc1cc(N2C(=O)C(O)=C(C(=O)c3cc4ccccc4o3)C2c2ccc(Br)cc2)no1 (stereo not drawn) | active: 39.8 µM |
| CCOc1ccccc1NC(=O)Nc1cccc(S(N)(=O)=O)c1 | inconclusive: 112 µM [inhibitor, single point] |
| Cn1c(Nc2ccc(Cl)cc2)cc(=O)n(C)c1=O | inconclusive: 31.6 µM [inhibitor, partial curve, poor fit] |
| COc1ccc(C(=O)NCC(=O)NC2=NCCS2)cc1 | inconclusive: 35.5 µM [inhibitor, single point] |
| O=C(NCCN1CCC(n2c(=O)[nH]c3ccccc32)CC1)c1ccc(F)c(F)c1 | inconclusive: 89.1 µM [inhibitor, single point] |
| COc1ccc(NC(=O)c2sc(=S)[nH]c2N)cc1 | inconclusive: 31.6 µM [inhibitor, full curve, poor fit] |
| COc1ccc(CCNC(=O)CCc2ccccc2O)cc1OC | inconclusive: 3.55 µM [inhibitor, full curve, poor fit] |
| COc1ccc(-c2nccn3cc(C(=O)NCCc4ccccn4)nc23)cc1 | inactive |
| COc1cc2c3nnc(-c4ccc(F)cc4)c-3cn(Cc3ccccc3)c2cc1OC | inconclusive: 50.1 µM [inhibitor, partial curve, poor fit] |
| COc1ccc2c(COC(=O)c3ccc(N4CCOCC4)nc3)cc(=O)oc2c1 | inconclusive: 14.1 µM [inhibitor, partial curve, poor fit] |

Of the compounds above, these contain a furan ring, fused or not:

| Structure (SMILES) | Potency |
| --- | --- |
| CCOc1ccc2oc(C(=O)Nc3cc(C)ccn3)c(C)c2c1 | inconclusive: 44.7 µM [inhibitor, partial curve, poor fit] |
| Fc1ccc(Nc2nc(-c3ccoc3)nc3ccccc23)cc1 | inconclusive: 6.31 µM [inhibitor, full curve, poor fit] |
| Cc1cc(N2C(=O)C(O)=C(C(=O)c3cc4ccccc4o3)C2c2ccc(Br)cc2)no1 (stereo not drawn) | active: 39.8 µM |

More compounds

| Structure (SMILES) | Potency |
| --- | --- |
| CCSc1nc2ccccc2n1C(=O)c1ccc(S(=O)(=O)N2CCCCCC2)cc1 | inactive |
| CCCCn1c(N)c(N(CC)C(=O)c2ccc3c(c2)S(=O)(=O)c2ccccc2C3=O)c(=O)[nH]c1=O | inconclusive: 14.1 µM [inhibitor, partial curve, poor fit] |
| Cc1cc(OCC(O)CN2CCN(c3cccc(Cl)c3)CC2)ccc1Cl (stereo not drawn) | active: 39.8 µM |
| O=C(N/N=C/c1ccccc1O)c1cccc2ccccc12 | inconclusive: 22.4 µM [inhibitor, partial curve, poor fit] |
| NC(=O)C1CCC(NC(=O)C2(c3cccc(Cl)c3)CCC2)CC1 (stereo not drawn) | inactive |
| COc1ccc(CN(C)CC(O)COC(c2ccccc2)c2ccccc2)c(OC)c1OC (stereo not drawn) | inconclusive: 89.1 µM [inhibitor, partial curve, poor fit] |
| O=C(O)C1CCC(c2ccc(I)cc2)CC1 (stereo not drawn) | inactive |
| Cc1ccc(N=C2NN=C(c3cc(C)n(CC4CCCO4)c3C)CS2)cc1C (stereo not drawn) | active: 35.5 µM |
| COc1ccc(C2C(C#N)=C(N)Oc3n[nH]c(C)c32)cc1Cn1nc(C)c([N+](=O)[O-])c1C (stereo not drawn) | inactive |
| COc1ccc(OC)c(S(=O)(=O)NCC(c2ccco2)N2CCc3ccccc3C2)c1 (stereo not drawn) | inconclusive: 89.1 µM [inhibitor, single point] |
| CCCCn1c(N)c(N(CC(C)C)C(=O)C2=NN(c3cc(C)ccc3C)C(=O)CC2)c(=O)[nH]c1=O | inconclusive: 89.1 µM [inhibitor, partial curve, poor fit] |
| COc1ccc(C)cc1NC(=O)Cn1nc(-c2cccs2)oc1=O | inconclusive: 17.8 µM [inhibitor, full curve] |
| O=C1Nc2cc(Cl)ccc2Nc2cscc21 | inconclusive: 50.1 µM [inhibitor, partial curve, poor fit] |
| CCOC(=O)c1cc(-c2ccc(F)cc2)n(CCC(=O)Nc2nc3ccc(OC)cc3s2)c1C | inconclusive: 50.1 µM [inhibitor, partial curve, poor fit] |
| O=C(CSc1nnc2ccccn12)c1cccc(Cl)c1 | inconclusive: 50.1 µM [inhibitor, partial curve, poor fit] |
| COc1ccc(-n2nc(C3CCN(Cc4ccc(F)cc4)CC3)[nH]c2=O)cc1 | inconclusive: 39.8 µM [inhibitor, full curve] |
| CCOc1ccccc1C(=O)OCc1ccc(C(N)=O)cc1 | inconclusive: 112 µM [inhibitor, single point] |
| O=C(CC12CC3CC(CC(C3)C1)C2)NC(=S)NCc1ccccc1 | active: 28.2 µM |
| O=S(=O)(c1ccc(SCc2cc(Cl)c3c(c2)OCCCO3)nc1)N1CCOCC1 | inactive |
| O=C(CSc1ccc(Cl)cc1)Nc1ccccc1Oc1ccccc1 | inconclusive: 44.7 µM [inhibitor, partial curve, poor fit] |
| COc1ccc2c3c(cccc13)N(C)N=C2C | inconclusive: 35.5 µM [inhibitor, partial curve, poor fit] |
